# Assay results as given in PubChem BioAssay AID540336 (Broad Institute, 2011).
# The chains behind the UniProt entries cited, without tags or fusion partners.
# UniProt Q5AAJ8, whole entry, looked up: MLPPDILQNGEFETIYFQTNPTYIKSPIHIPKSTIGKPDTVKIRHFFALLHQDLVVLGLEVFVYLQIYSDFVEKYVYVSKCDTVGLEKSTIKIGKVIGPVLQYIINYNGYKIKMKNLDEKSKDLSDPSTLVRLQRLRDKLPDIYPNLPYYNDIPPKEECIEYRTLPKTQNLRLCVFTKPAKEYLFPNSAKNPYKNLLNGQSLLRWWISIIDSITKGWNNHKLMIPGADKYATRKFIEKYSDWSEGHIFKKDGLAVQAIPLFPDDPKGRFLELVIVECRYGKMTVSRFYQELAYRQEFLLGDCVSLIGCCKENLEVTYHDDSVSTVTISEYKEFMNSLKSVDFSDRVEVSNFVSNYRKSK
# The whole screen tested about 330,000 compounds, of which about 520 (0.16%) were called active. The shares of active, inactive and inconclusive entries below differ from those in the screen.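 How the source made its calls: active means inhibition of at least 50% in every replicate; inconclusive means best replicate reaches 50% inhibition but some replicates fall short; inactive means the rest.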
# Target: Histone acetyltransferase RTT109 (Candida albicans (strain SC5314 / ATCC MYA-2876)) (UniProt Q5AAJ8)
# Assay: Rtt109-Vps75 histone acetyltransferase blockade – biochemical, ThioGlo CoA-SH fluorescence, plate reader, primary screen (AID 540336)
# Conditions: purified Rtt109/Vps75, ThioGlo CoA-SH fluorescence, 4 h; at 34.9 µM; hits give high values
row,Compound,inhibition
1,C[C@@H](CSc1ccccc1)CN1CC[C@H](C(C)(C)C)CCC1=O,inconclusive: 31%
2,CC(C)CN1CCN(Cc2cc(F)ccc2-n2cccn2)CC1CCO (stereo not given),inconclusive: 34%
3,CCOc1cc(/C=C2\SC(=Nc3ccccc3)N(c3ccccc3)C2=O)ccc1OCC(=O)O,inconclusive: 63.3%
4,CN(C)CCCNC(=O)/C(=C\c1ccc(-c2ccc(Br)cc2)o1)NC(=O)c1ccccc1,inconclusive: 41.8%
5,COc1ccc(-[n+]2c(C)cc(/C=C3\Sc4ccccc4N3C)cc2C)cc1,active: 74%
6,CC1CCc2c(sc(N)c2C(N)=O)C1 (stereo not given),active: 50.5%
7,O=C(CNC(=O)c1cccs1)NCC(=O)OCC(=O)c1ccc([N+](=O)[O-])cc1,inconclusive: 72.3%
8,Cc1ccc(CNC2CCCCC2)s1,inconclusive: 27.3%
9,Oc1c(C(c2ccccn2)N2CCOCC2)ccc2cccnc12 (stereo not given),active: 51.7%
10,N=C(N)SCc1cn(-c2ccccc2)nc1-c1ccc(Br)cc1,inconclusive: 62.1%
11,COc1ccc2c(c1)C(=O)N1[C@H]3c4cc(Cl)ccc4OC[C@@H]3[C@H](c3ccccc3)[C@]1(C)C(=O)N2,inactive: -9.93%
12,O=C(NNS(=O)(=O)c1ccccc1[N+](=O)[O-])c1ccccc1Cl,inactive: 4.55%
13,N=c1n(CC(=O)c2ccc(Br)s2)c2ccccc2n1Cc1ccccc1,inconclusive: 59.9%
14,CCC(C)[C@H](NC(=O)NCc1ccc(Cl)cc1)C(=O)OC (stereo not given in full),inconclusive: 32.6%
15,CCOC(=O)C1=C(C)N=c2s/c(=C\c3ccc(OCC(=O)O)cc3)c(=O)n2C1c1ccc(OC(C)C)cc1 (stereo not given),inconclusive: 32.8%
16,COc1ccc(N2CCc3c(C)nc4c(OC)cc(OC)cc4c32)cc1,inconclusive: 46.8%
17,Cc1ccc2nc(-c3ccc(NC(=S)NC4CC(C)(C)NC(C)(C)C4)cc3)sc2c1,active: 62.2%
18,O=C(CCCC(=O)OCC(=O)NC1CCCC1)Nc1ccccn1,inconclusive: 9.44%
19,O=C(OCCN1C(=O)c2cccc3c(N4CCOCC4)ccc(c23)C1=O)c1ccc(Cl)cc1Cl,inactive: -49.2%
20,C=CCn1c(C)cc(C(=O)CN2C(=O)c3ccccc3S2(=O)=O)c1C,inconclusive: 36.8%
21,CC1(C)OC(=O)N(c2ccccc2)C12C=Cc1cc(Br)ccc1O2 (stereo not given),active: 53.4%
22,CCCCCCCCn1c2c(c(=N)c3ccccc31)CCC2,inconclusive: 57.1%
23,Nc1nonc1-c1nc2ccccc2n1CC(=O)Nc1ccccc1,inactive: -5.54%
24,CCCSc1nc2cc(OC)c(OC)cc2c(=N)n1CCCN1CCOCC1,inactive: 8.63%
25,CO[C@H]1C=CO[C@@]2(C)Oc3c(C)c(O)c4c(O)c(c(C=NN5CCN(C)CC5)c(O)c4c3C2=O)NC(=O)C(C)=CC=C[C@H](C)[C@H](O)[C@@H](C)[C@@H](O)[C@@H](C)[C@H](OC(C)=O)[C@@H]1C,inconclusive: 39.5%
26,COc1ccc(N2C(=O)CC(C#N)=C2N)cc1,inactive: 8.7%
27,CCn1c(SCC(=O)Nc2ccc(Br)cc2)nc2sc3c(c2c1=O)CCN(C)C3,active: 51.8%
28,COc1cc(-c2nnc(SCC(=O)N(Cc3ccccc3)C(C)(C)C)o2)cc(OC)c1OC,inconclusive: 30%

# Four of the compounds above, with bars between the fields:
row | Compound | inhibition
2 | CC(C)CN1CCN(Cc2cc(F)ccc2-n2cccn2)CC1CCO (stereo not given) | inconclusive: 34%
3 | CCOc1cc(/C=C2\SC(=Nc3ccccc3)N(c3ccccc3)C2=O)ccc1OCC(=O)O | inconclusive: 63.3%
4 | CN(C)CCCNC(=O)/C(=C\c1ccc(-c2ccc(Br)cc2)o1)NC(=O)c1ccccc1 | inconclusive: 41.8%
5 | COc1ccc(-[n+]2c(C)cc(/C=C3\Sc4ccccc4N3C)cc2C)cc1 | active: 74%

# Additional records:

row,Compound,inhibition
1,COc1ccccc1NC1=C(Cl)C(=O)N(C2CCCCC2)C1=O,active: 51.9%
2,Cc1cc(S(=O)(=O)NCC(c2ccc(F)cc2)N2CCN(C)CC2)ccc1F (stereo not given),inconclusive: 21.3%
3,COc1ccc(/C=C2\SC(=S)N(C(C)C(=O)NC3C=CS(=O)(=O)C3)C2=O)cc1 (stereo not given),inactive: 33.6%
4,COc1ccc(N/N=C2/CCCCC2=O)cc1,inconclusive: 43.2%
5,CCCCn1c(=O)[nH]c(=O)c2c1nc(-c1ccc3ccccc3c1)n2CC,inconclusive: 31.8%
6,COc1ccccc1CC(=O)N1CCN(S(=O)(=O)c2ccccc2F)CC1,inconclusive: 42.6%
7,COc1cc2ccc(=O)oc2c(O)c1O,active: 126%
8,COc1ccc(CCNC(=O)C2CC3Cn4c(nc5ccccc54)C3N2Cc2ccccc2)cc1 (stereo not given),inactive: -1.27%
9,Cc1cc(C)c(C(=O)COc2cccnc2[N+](=O)[O-])cc1C,inconclusive: 25.7%
10,CCCCOC(=O)Nc1ccc(S(=O)(=O)Nc2ncccn2)cc1,inconclusive: 27.5%
11,CCc1nnc(NC(=O)CN2C(=O)c3ccccc3C2=O)s1,active: 54.6%
12,COC(=O)C1=NNC(C(=O)OC)C1c1ccccc1 (stereo not given),inactive: 4.76%
13,COc1ccc(CC(=O)N2CCC(Nc3nc4ccccc4n3Cc3ccc(F)cc3)CC2)cc1,inconclusive: 40.5%
14,NC(=O)c1cc(C(=O)c2ccc(Cl)cc2Cl)c[nH]1,inactive: 5.92%
15,O=C(CN(c1ccccc1F)S(=O)(=O)c1ccccc1)Nc1ccc2c(c1)OCCO2,inconclusive: 33.2%
16,Clc1nc(Nc2ccccc2)nc(Nc2ccccc2)n1,active: 50.2%
17,CCOCCCNC(=O)C(c1ccc(Cl)cc1)N1CCC2(CC1)OCCO2 (stereo not given),inactive: 18.4%
18,CCSC1=C(C#N)C(c2ccccc2OC)CC(=O)N1 (stereo not given),inconclusive: 24.8%
19,O=C(O)c1[nH]c2ccc([N+](=O)[O-])cc2c1-c1ccccc1,inconclusive: 29.3%
20,CCCc1nnc(NC(=O)COc2ccc3c(c2)OCO3)s1,inactive: -1.85%
21,NC(=S)N=Nc1ccc(NN=C(N)N)cc1,inconclusive: 48.6%
22,CCc1sc(/C=C(/C#N)C(N)=S)cc1[N+](=O)[O-],inconclusive: 24.1%
23,CC[C@@H](C)[C@@H]1CN([C@@H](C)CN2CCC[C@H]2CN2C(N)=NC[C@@H]2Cc2ccccc2)C(=N)N1CCCC1CCCC1,inconclusive: 35.5%
24,CCN1CCCC1CNC(=O)c1ccc2c(c1)NC(=O)/C(=C\c1ccc(OC)c(OC)c1)S2 (stereo not given),inconclusive: 32.7%
25,CC(=O)Nc1ccc(SCC(=O)NC(=O)c2ccc(S(=O)(=O)N(C)C)cc2)cc1,inconclusive: 29.6%
26,COc1cc(OC)c2ccc(=O)oc2c1C(CCN1CCOCC1)c1ccc2c(c1)OCO2 (stereo not given),inactive: -2.19%
27,Cc1sc2ccc3sccc3c2[n+]1C,inconclusive: 37.1%
